Test results published in publication PMC13293125.
Results are given in words; binding and its absence hold for the method and conditions named. In cells and extracts the contact can be indirect. Binding can be weak; no strength is given. For some of these results: Sequences can lack the tags named with a protein.

Key:
[1] = target: T1, RFP–AtVPS52 (Arabidopsis) (UniProt Q94KD3); assay: co-IP; proteins co-expressed in N. benthamiana by agroinfiltration, with or without the other effector (myc–Mp1 or GFP–Mp58); lysate in GTEN buffer with 0.2% Triton X-100, 10 mM DTT; RFP-trap, 4 °C, 2 h; blot
T1 sequence: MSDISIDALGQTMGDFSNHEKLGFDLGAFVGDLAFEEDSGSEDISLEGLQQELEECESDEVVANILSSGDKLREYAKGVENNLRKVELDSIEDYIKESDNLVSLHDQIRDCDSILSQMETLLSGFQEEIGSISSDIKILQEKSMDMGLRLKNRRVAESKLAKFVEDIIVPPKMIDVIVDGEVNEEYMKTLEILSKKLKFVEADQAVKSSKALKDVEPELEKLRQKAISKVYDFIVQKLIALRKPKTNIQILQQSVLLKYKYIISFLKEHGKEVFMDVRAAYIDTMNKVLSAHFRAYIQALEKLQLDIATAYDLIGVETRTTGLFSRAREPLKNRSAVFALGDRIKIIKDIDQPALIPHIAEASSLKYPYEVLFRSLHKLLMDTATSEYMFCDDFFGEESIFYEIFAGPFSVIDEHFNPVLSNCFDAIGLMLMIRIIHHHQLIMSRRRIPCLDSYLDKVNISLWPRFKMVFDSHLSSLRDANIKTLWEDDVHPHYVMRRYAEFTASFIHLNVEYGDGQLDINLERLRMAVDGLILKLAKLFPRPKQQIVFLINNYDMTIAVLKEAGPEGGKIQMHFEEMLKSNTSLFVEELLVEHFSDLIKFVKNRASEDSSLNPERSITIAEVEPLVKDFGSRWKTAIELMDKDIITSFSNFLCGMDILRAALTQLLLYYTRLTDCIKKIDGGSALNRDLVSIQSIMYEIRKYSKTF

[2] = target: T2, His–AtVPS52^1–170 (Arabidopsis) (UniProt Q94KD3); assay: pull-down; His- and GST-tagged proteins expressed individually in E. coli, lysates combined, IMAC of the His-tagged protein, eluates blotted against GST
T2 sequence: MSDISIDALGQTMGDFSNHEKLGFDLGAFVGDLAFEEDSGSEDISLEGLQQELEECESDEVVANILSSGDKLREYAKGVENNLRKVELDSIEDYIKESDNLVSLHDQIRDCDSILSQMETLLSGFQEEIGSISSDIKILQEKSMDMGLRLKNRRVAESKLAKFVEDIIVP

Substance: GFP–Mp1 (Myzus persicae)
- binding [1]: binds

Substance: GFP–Mp58 (Myzus persicae)
- binding [1]: binds

Substance: GST–Mp1 (Myzus persicae)
- binding [2]: binds

Substance: myc–Mp1 (Myzus persicae)
- binding [1]: binds
